Reference: US20220265819A1
No constants are given. Whether binding was seen depends on the method and setting. Some results given as binding are weak or reduced against the parent protein; the word gives no strength.

Protein sequences, listed by entry. Tags and fused reporters are not part of them. Lines headed by an entry give the natural chain unless they say otherwise; changes in a name come on top.
UniProt P10636: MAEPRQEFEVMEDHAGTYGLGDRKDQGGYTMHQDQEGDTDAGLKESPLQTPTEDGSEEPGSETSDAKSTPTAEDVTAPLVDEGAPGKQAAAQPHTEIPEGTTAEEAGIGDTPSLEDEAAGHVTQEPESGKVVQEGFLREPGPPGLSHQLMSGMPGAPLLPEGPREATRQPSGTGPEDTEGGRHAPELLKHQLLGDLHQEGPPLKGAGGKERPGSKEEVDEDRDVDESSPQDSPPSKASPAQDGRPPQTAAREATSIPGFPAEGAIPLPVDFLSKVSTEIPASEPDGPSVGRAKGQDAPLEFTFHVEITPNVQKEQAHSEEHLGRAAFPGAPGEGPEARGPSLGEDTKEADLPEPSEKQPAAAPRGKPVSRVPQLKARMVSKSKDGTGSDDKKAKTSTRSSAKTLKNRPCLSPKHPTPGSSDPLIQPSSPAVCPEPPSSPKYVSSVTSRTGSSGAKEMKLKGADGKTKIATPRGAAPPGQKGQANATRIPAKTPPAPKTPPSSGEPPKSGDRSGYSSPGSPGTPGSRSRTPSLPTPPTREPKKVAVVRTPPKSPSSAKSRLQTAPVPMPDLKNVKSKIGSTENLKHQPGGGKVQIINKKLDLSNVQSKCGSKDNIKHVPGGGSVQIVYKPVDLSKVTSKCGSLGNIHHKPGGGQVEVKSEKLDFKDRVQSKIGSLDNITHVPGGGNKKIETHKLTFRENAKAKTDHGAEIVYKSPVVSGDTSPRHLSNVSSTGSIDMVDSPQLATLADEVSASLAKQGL

Columns and labels:
[1] = molecular target: full length recombinant human 2N4R tau (amino acids 1-441) (human) (UniProt P10636); experiment: phage ELISA
[2] = molecular target: T1, antigen peptide [C]-…-amide (tau 396-410 with N-terminal cysteine) (human); experiment: phage ELISA, peptide conjugated to BSA or transferrin
T1 sequence (peptide, C-terminal amide): CSPVVSGDTSPRHLSN

[3] = molecular target: T1, antigen peptide [C]-…-amide (tau 396-410 with N-terminal cysteine) (human); experiment: phage ELISA, phage supernatant 1:25, anti-M13-HRP, n=1
[4] = molecular target: full length recombinant human 2N4R tau (amino acids 1-441) (human) (UniProt P10636); experiment: phage ELISA, tau 100 ng/well, phage supernatant 1:25, anti-M13-HRP, n=1
[5] = molecular target: T1, antigen peptide [C]-…-amide (tau 396-410 with N-terminal cysteine) (human); experiment: ELISA, HEK293F supernatant on coated peptide
[6] = molecular target: T1, antigen peptide [C]-…-amide (tau 396-410 with N-terminal cysteine) (human); experiment: ELISA on peptide SEQ ID NO: 13, HEK293F supernatant 1:50, anti-rabbit IgG-HRP, n=1
[7] = molecular target: full length recombinant human 2N4R tau (amino acids 1-441) (human) (UniProt P10636); experiment: ELISA on full length 2N4R tau 100 ng/well, HEK293F supernatant 1:50, anti-rabbit IgG-HRP, n=1
[8] = molecular target: full length recombinant human 2N4R tau (amino acids 1-441) (human) (UniProt P10636); experiment: western blot, HEK supernatant
[9] = molecular target: full length recombinant human 2N4R tau (amino acids 1-441) (human) (UniProt P10636); experiment: western blot, HEK293F supernatant
[10] = molecular target: full length recombinant human 2N4R tau (amino acids 1-441) (human) (UniProt P10636); experiment: western blot with HEK supernatant
[11] = molecular target: full length recombinant human 2N4R tau (amino acids 1-441) (human) (UniProt P10636); experiment: ELISA, purified IgG
[12] = molecular target: T2, linear peptide 396…410 (tau 396-410), lead sequence of the Pepscan array (human); experiment: Pepscan peptide-array ELISA
T2 sequence (peptide): SPVVSGDTSPRHLSN

[13] = molecular target: T2, linear peptide 396…410 (tau 396-410), lead sequence of the Pepscan array (human); experiment: Pepscan peptide array ELISA, antibody 0.25 µg/mL, CCD read-out 0-3000 mAU
[14] = molecular target: full length recombinant human 2N4R tau (amino acids 1-441) (human) (UniProt P10636); experiment: ELISA on full length 2N4R tau 100 ng/well, purified IgG, anti-rabbit IgG-HRP, n=2 wells

Measured: binding

B1: Clone 13 human scFv (phage displayed) (scFv, V domains shown)
VH: ESGGGVVKPGGSLRLACEASGFTFNKYAMSWVRQAPGKGLEWVSGNSGSGNSTYYADSVKGRFTISRDNSKNILYLDMNNLRAEDTALYYCAKTRGAGRRKPYGMDVWGHGTTVTVSS
VL: VMTQSPSTLSLSPGERATLSCRASQSVANNYLAWYQHKPGQAPRVLIYGASSRATGIPDRFSGSGSGTDFTLTISRLEPEDFAVYYCQQYGSSPRTFGGGTKLEIK
binds: [1] | [2] | [3] | [4]

B2: Clone 5 rabbit monoclonal IgG (antibody, V domains shown)
VH: QSLEESGGRLVAPGTPLTLTCTVSGFSLSSYDMSWVRQAPGRGLEWIGTISSSYRTYYASWAKGRFTISKTSSTTVDLKMTSLTTEDTATYFCASSGIWGPGTLVTVSL
VL: AQVLTQTASPVSAAVGGTVTINCQSSQRVYNNYLAWYQQKPGQPPKRLIYLASTLESGVPSRFSGSGSGTQFTLTISGVVCDDAATYYCAGTYSGSIWAFGGGTEVVVKG
binds: [5] | [6] | [7]

B3: Clone 8 rabbit monoclonal IgG (antibody, V domains shown)
VH: QSLEESGGRLVAPGTPLTLTCTVSGFSLSSYDMSWVRQAPGRGLEWIGTISSSYRTYYASWAKGRFTISKTSSTTVDLKMTSLTTEDTATYFCASSGIWGPGTLVTVSL
VL: AQVLTQTASPVSAAVGGTVTINCQSSQRVYNNYLAWYQQKPGQPPKRLIYLASTLESGVPSRFSGSGSGTQFTLTISGVVCDDAATYYCAGTYSGSIWAFGGGTEVVVKG
binds: [5] | [6] | [7]

B4: Clone 3 rabbit monoclonal IgG (antibody, V domains shown)
VH: QSVEESGGRLVTPGTPLTLTCTASGFSLSRYDMSWVRQAPGKGLEWIGTISGSYNTYYMSWAKGRFTISKTSSTTVDLKMTSLTTEDTATYFCASSGIWGPGTLVTVSL
VL: AQVLTQTASPVSAAVGGTVTINCQSSQRVYSNYLSWYQQKPGQPPRRLIWLASTLESGVPSRFSGSGSGTQFTLTISGVVCDDAATYYCAGTYSGSIWAFGGGTEVVVKG
binds: [8] | [9] | [10] | [5] | [6] | [7]

B5: Clone 7 rabbit monoclonal IgG (antibody, V domains shown)
VH: QSVEESGGRLVTPGTPLTLTCTVSGFSLSSYDMSWVRQAPGKGLEWIGTIGRYYNTYYATWAKGRFTISKTSSTTVDLKMTSLTTEDTATYFCASSGIWGPGTLVTVSL
VL: AQVLTQTASPVSAAVGGTVTINCQSSQTVYNNNYLSWYQQKPGQPPKRLIYLASTLESGVPSRFSGSGSGTQFTLTISGVVCDDAATYYCAGTYSGSIWAFGGGTEVVVKG
binds: [5] | [6] | [7]

B6: Clone 1 rabbit monoclonal IgG (antibody, V domains shown)
VH: QSLEESGGGLVKPGGTLTLTCTVSGFSLNNYDMSWVRQAPGKGLEWIGTVSTTYRRYYASWAKGRFTISKTSSTTVDLKMTSLTTEDTATYFCAASGIWGPGTLVTVSL
VL: AQVLTQTTSPVSAAVGGTVTINCQSSQRVYSNYLAWYQQKPGQPPKRLIFLASTLESGVPSRFSGSGSGTQFTLTISDLECDDAATYYCAGTYTGSIWAFGGGTEVVVKG
not listed: [1] | [2] | [3] | [4]
binds: all other assays above

B7: Clone 4 rabbit monoclonal IgG (antibody, V domains shown)
VH: QSVEESGGRLVTPGTPLTLTCTVSGFSLSSYDMSWVRQAPGKGLEWIGTIGRYYNTYYATWAKGRFTISKTSSTTVDLKMTSLTTEDTATYFCASSGIWGPGTLVTVSL
VL: AQVLTQTASPVSAAVGGTVTINCQSSQTVYNNNYLSWYQQKPGQPPKRLIYLASTLESGVPSRFSGSGSGTQFTLTISGVVCDDAATYYCAGTYSGSIWAFGGGTEVVVKG
binds: [8] | [9] | [10] | [5] | [6] | [7]

B8: Clone 6 rabbit monoclonal IgG (antibody, V domains shown)
VH: QSVEESGGRLVTPGTPLTLTCTVSGFSLSSYDMSWVRQAPGKGLEWIGTIGRYYNTYYATWAKGRFTISKTSSTTVDLKMTSLTTEDTATYFCASSGIWGPGTLVTVSL
VL: AQVLTQTASPVSAAVGGTVTINCQSSQTVYNNNYLSWYQQKPGQPPKRLIYLASTLESGVPSRFSGSGSGTQFTLTISGVVCDDAATYYCAGTYSGSIWAFGGGTEVVVKG
binds: [5] | [6] | [7]
